No constants are given. Whether binding was seen depends on the method and setting. Binding can be weak; no strength is given.

B1: OP10-463 (peptide)
peptide: RRLYYEGLQD
B2: OP10-507 (peptide)
peptide: QIQLAQKLEI
B3: OP10-527 (peptide)
peptide: VQRQLAIQRL

For this assay, the target named is GST-labeled STAM (Human) Recombinant Protein (Abnova) (human). Description: SPR (ProteOn XPR36), GST-labeled protein immobilized on GLH chip, GST as blank.
As to B1, the binding entry is listed as “binds”. As for B2, the entry is “binds”; as for B3, “binds”.

The values are drawn from patent publication US20220144905A1.
